Measured values as given in US20250270270A1.
No constants are given. Whether binding was seen depends on the method and setting. Some binding calls cover weakened binding; strength is not graded here.

Amino acid sequences for entries named in this document (tags omitted). A change or cut given only in a name is not applied to a line headed by its entry.
UniProt P06756: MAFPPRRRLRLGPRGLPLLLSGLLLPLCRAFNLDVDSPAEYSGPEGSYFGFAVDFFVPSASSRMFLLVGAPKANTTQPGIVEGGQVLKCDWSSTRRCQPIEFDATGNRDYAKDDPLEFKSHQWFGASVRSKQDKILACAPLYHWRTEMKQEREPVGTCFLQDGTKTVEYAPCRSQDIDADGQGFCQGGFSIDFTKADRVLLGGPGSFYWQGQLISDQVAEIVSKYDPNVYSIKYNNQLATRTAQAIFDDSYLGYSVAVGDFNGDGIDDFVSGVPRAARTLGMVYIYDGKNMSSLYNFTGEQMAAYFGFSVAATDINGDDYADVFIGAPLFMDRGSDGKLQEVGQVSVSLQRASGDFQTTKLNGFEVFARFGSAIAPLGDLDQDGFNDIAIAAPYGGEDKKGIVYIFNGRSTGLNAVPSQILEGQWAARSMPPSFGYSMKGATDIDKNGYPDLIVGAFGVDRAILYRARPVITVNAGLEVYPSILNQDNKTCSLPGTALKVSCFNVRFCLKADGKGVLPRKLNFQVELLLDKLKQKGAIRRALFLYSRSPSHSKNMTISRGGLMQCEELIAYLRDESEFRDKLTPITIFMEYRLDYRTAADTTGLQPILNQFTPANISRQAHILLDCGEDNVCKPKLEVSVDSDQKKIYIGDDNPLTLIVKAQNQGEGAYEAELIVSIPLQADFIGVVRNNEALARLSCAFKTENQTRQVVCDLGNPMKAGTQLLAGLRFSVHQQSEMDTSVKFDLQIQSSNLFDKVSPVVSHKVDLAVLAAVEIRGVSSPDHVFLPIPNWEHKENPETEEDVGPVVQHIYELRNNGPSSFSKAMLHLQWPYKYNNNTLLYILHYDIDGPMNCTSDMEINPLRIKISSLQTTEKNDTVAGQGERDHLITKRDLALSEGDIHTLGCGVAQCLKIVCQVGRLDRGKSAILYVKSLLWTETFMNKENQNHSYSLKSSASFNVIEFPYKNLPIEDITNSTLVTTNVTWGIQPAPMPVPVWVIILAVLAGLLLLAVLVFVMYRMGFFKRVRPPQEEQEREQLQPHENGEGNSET

Columns and labels:
[1] = target: recombinant integrin αVβ6 (R&D Systems) (UniProt P06756); assay: plate ELISA (FIG. 14a)
[2] = target: recombinant integrin αVβ3 (R&D Systems) (UniProt P06756); assay: plate ELISA (FIG. 14a)
[3] = target: recombinant integrin αVβ6 (R&D Systems) (UniProt P06756); assay: plate ELISA, detection with KU32-52 (FIG. 14a)
[4] = target: recombinant integrin αVβ3 (R&D Systems) (UniProt P06756); assay: plate ELISA, detection with KU32-52 (FIG. 14a)
[5] = target: recombinant integrin αVβ6 (R&D Systems) (UniProt P06756); assay: plate ELISA, integrin coated at 1 µg/mL, detection with KU32-52, OD 450 nm
[6] = target: recombinant integrin αVβ3 (R&D Systems) (UniProt P06756); assay: as above
[7] = target: recombinant integrin αVβ6 (R&D Systems) (UniProt P06756); assay: integrin binding assay, told in the summary
[8] = target: recombinant integrin αVβ3 (R&D Systems) (UniProt P06756); assay: integrin binding assay, told in the summary

Measured: binding

B1: recombinant human IL-32θ(A94V) (ligand, not shown: small tags and cut ends)
chain: MCFPKVLSDDMKKLKARMHQAIERFYDKMQNAESGRGQVMSSLAELEELTPLLEKERDGLRCRGNRSPVPDVEDPATEEPGESFCDKVMRWFQVMLQRLQTWWHGVLAWVKEKVVALVHAVQALWKQFQSFCCSLSELFMSSFQSYGAPRGDKEELTPQKCSEPQSSK
binds: all assays above
